The values below come from the supplement of paper PMC3334620.

In all, about 33,000 sequences were measured (“E-score (-0.5 to 0.5)”: median about -0.016, highest 2% from about 0.3 on). The list shows a part of the results.

For the assay, the target named is T1, Yer184c (UniProt P39961).
T1 sequence: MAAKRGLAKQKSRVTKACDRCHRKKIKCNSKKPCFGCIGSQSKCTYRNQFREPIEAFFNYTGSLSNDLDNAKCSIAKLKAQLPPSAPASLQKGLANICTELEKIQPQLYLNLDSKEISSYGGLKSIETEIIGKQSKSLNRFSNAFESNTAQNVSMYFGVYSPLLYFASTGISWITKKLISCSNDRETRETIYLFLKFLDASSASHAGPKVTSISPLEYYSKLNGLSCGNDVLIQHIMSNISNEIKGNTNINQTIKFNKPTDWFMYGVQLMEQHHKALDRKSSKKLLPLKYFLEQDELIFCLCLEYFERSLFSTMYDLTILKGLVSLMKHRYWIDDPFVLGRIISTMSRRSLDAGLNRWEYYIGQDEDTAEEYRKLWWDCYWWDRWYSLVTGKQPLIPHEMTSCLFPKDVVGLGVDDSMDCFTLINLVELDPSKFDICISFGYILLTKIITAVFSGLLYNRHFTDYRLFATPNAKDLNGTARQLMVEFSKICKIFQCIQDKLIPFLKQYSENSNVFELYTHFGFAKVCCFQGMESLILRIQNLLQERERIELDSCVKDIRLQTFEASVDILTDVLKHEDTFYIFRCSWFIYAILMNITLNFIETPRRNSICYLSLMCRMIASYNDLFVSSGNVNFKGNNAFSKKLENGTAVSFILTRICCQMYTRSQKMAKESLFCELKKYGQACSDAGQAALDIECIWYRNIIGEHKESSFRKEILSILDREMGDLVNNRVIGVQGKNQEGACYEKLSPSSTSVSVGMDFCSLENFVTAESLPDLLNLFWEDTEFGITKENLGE
Put plainly: PBM E-score (8-mer binding enrichment) (E-score (-0.5 to 0.5)); higher = stronger / more preferred TF binding. The note with it: protein concentration: 100 nM; construct: GST-full length. The method, then:
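Universal 'all 10-mer' protein binding microarrays (Agilent AMADID 015681) probed with GST-tagged S. cerevisiae TFs (full-length or DBD) made by in vitro transcription/translation (PURExpress), about 100-200 nM. Bound TF was detected with fluorescent anti-GST. Each ungapped 8-mer (which stands for itself and its reverse complement) is scored by the PBM enrichment score (E-score), a modified Wilcoxon-Mann-Whitney statistic from -0.5 to +0.5, computed with the Universal PBM Analysis Suite. Scale: above 0.35 generally sequence-specific binding.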
For AGGGCCCC, the “PBM E-score” value is -0.342.
The figure for CGCCCAGA is -0.215; for TGAGCGCA it is -0.177; for ACCGTTTG it is -0.0266.
On to AGGGGTCC, for which the “PBM E-score” value was -0.23.
Regarding CCTGGCGA, the “PBM E-score” value is -0.153.
Regarding AAAGTTGC, the “PBM E-score” value was -0.0435.
For the sequence TACCGTCA, the “PBM E-score” value worked out at 0.0101.
The figure for TAGCTCAA is 0.0549; for CCCAGCCC it is -0.325; for CCGCTAAA it is 0.00122.
AAGTATCG: the “PBM E-score” value is 0.0788.
The figure for GGATCCAA is 0.104.
The figure for GGAACGTA is -0.137; for CGCGGAAG it is 0.138.
On to GCATTGCC, for which the “PBM E-score” value is -0.0318.
The value for AATAACTC was 0.0529; that for ACCGGTGC was 0.144; that for AATAGTTC was 0.218.
The value for AAGGCGGT was -0.0822; that for AGGCTAGG was -0.359.
The figure for TTGCACAA is 0.0923.
As to CGATCATC, the “PBM E-score” value was -0.0604.
The figure for AGCATGTG is -0.113; for TACGCGAA it is -0.0357.
Consider CATGATGA, for which the “PBM E-score” value was found to be 0.0345.
The value for TCACGCCA was 0.0416; that for GTCCAAGA was -0.172.
The figure for AATAATAA is 0.285.
For AAGTACCA, the “PBM E-score” value was 0.134.
Take AGACTCCA: the “PBM E-score” value is -0.253.
The figure for TATAGGCA is -0.134; for TAGTTGAA it is 0.103.
The value for AATTAAAT was 0.118; that for CAGCCGAG was 0.275; that for CCATTTCC was 0.13.
Regarding GCGTTTTA, the “PBM E-score” value is 0.146.
The value for CACGATAC was -0.122; that for CATTGGGC was -0.261.
The figure for ATCCTTCA is 0.022.
For GACTTCAC, the “PBM E-score” value was -0.0636.
Consider GCGAGCGC, for which the “PBM E-score” value is 0.0998.
As for GCACTCAC, the “PBM E-score” value is -0.144.
With GGCTTAAA, the “PBM E-score” value is 0.164.
With CTCTCAAA, the “PBM E-score” value was 0.089.
Consider TGAAGCCA, for which the “PBM E-score” value is -0.0301.
The figure for AAGCTGGT is -0.00269; for CCACGTTC it is -0.182; for ATAACAGC it is 0.0641.
As for ATTGCTTG, the “PBM E-score” value is -0.0848.
The value for GGTAAGGA was -0.0168.
In the case of CGTCCACC, the “PBM E-score” value is -0.368.
Regarding AAAACAAT, the “PBM E-score” value was determined as 0.152.
As to GTGCCAAC, the “PBM E-score” value is -0.0189.
Take TAAACTTA: the “PBM E-score” value was found to be 0.0139.
The value for CTGTTTCA was 0.00764; that for ATGGGAGA was -0.261.
The value for GGAGAACC was 0.0393; that for AGGCGCGG was -0.071; that for AAAATCGT was 0.0631.
As for CAGAGCGC, the “PBM E-score” value was -0.29.
For the sequence AGATCCAT, the “PBM E-score” value is -0.105.
The value for CTGTCTCA was -0.117; that for CAATATCC was 0.0849; that for AGGGCCAC was -0.263.
The figure for AGTGCGGA is 0.254; for CCGGCTCC it is 0.293; for GTTCGACA it is 0.0616.
The value for AGCTTTGG was -0.121; that for AAACAGAT was 0.147; that for ACGTAATG was -0.0759.
Consider AGGGTCCC, for which the “PBM E-score” value was -0.233.
The value for ATCCCTGA was -0.157.
The figure for GCGAAGCC is -0.188; for CCGAAAAG it is 0.31.
The figure for AGTTGCCC is 0.071.
For AGCCCACC, the “PBM E-score” value was -0.228.
The figure for GGGAAAAA is 0.123; for ACATTGAT it is 0.219; for CGAGGAGA it is -0.213.
Take ACAGCGCG: the “PBM E-score” value was -0.0632.
As for ATCTGTGC, the “PBM E-score” value is -0.072.
The figure for AAGGCAAG is -0.25; for AGGAAGTC it is -0.203.
As for AAGTCAGT, the “PBM E-score” value is -0.0206.
The value for GCCCGACC was -0.116.
